{"source": "patent US20110269817A1", "about": "“COMPOSITIONS AND METHODS RELATED TO SIRT1 FUNCTION” (The Regents of the University of California, priority 2008, published 2011)", "tested_on": "CLOCK-SIRT1 interaction", "assay": "CLOCK-SIRT1 interaction (coimmunoprecipitation) in transfected JEG3 cells", "format": "cell-based, human", "conditions": "treated 1, 2 and 6 h, 1 mM NAD+, 10 mM glucose, 1 mM pyruvate, 100 μM DFO, 100 μM resveratrol, 120 μM splitomicin", "description": "The effect of various agents on the CLOCK-SIRT1 interaction was analyzed. […] JEG3 cells were cultured in BME containing 10% FBS and transfected with Myc-CLOCK, Myc-BMAL1, and Flag-SIRT1 constructs. Negative control (NC) represents cells transfected only with Myc-CLOCK and Myc-BMAL1. 24 h after transfection cells were replated, allowed to readhere for another 16 hours, and treated with indicated reagents for 1, 2 and 6 hours. Here the results with 6 h treatment are shown, the same results were obtained at 1 h and 2 h. Nuclear extracts were processed as previously described (Hirayama et al. 2007). This experiment was performed 3 times and a representative result is shown.\nLegend: Lane 1: control (C); lane 2: 50% horse serum (HS); lane 3: 1 mM NAD^+ (NAD^+); lane 4: 10 mM glucose (Glc); lane 5: 1 mM pyruvate (Pyr); 6: 100 μM DFO (DF); lane 7: 100 μM resveratrol; (Res) lane 8:120 μM splitomicin (Split). Lane 9: negative control (NC).", "note": "At least one structure is not confirmed: it was looked up by name or label, or the drawing left a doubt."}
{"smiles": "CC(=O)C(=O)O", "note": "[pyruvate]", "values": [{"measurement": "modulation of the CLOCK-SIRT1 interaction", "value": "not significantly modulated"}]}
